The test is described as follows: qHTS Assay to Find Inhibitors of Chronic Active B-Cell Receptor Signaling. As to conditions: ABC-DLBCL IkBa-CBG/CBR reporter, luminescence ratio (green luciferase fused to IkBa over red control in TMD8 lymphoma cells), 4 h. Summed up: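 TMD8 ABC-DLBCL cells carrying doxycycline-inducible green luciferase fused to IkappaBalpha plus unfused red luciferase were exposed to compounds (up to 46 uM) for 4 hrs at 37C. Activity came from the overlap-corrected green/red luminescence ratio.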

The mark [1] stands for this setting: measured here: CBR red luminescence, cell number.
[2] abbreviates: measured here: IkBa-CBG green luminescence.

This is one part of the list. The main result of the screen is listed elsewhere. These columns were measured beside it and carry no call. Most of these compounds were active or inconclusive in the main read-out, so they are no random draw. The note in brackets gives the kind of curve behind each potency; many fits are weak.

In the case of `CC(=O)Nc1ccc(SCCN2CC[C@@H](C)CCC2=O)cc1`, under setting [1], the concentration at half-maximal activity (AC50) was 29.1 µM [rising, single point].

In the case of `O=C1OCc2cc(NC(=O)C3COc4ccccc4O3)ccc21` (centres undefined), under setting [1], the AC50 was 16.4 µM [rising, partial curve, poor fit].

With `Cc1ccc(SCC(=O)OC(C)C(=O)NCc2ccccc2)cc1C` (centres undefined), the AC50 under setting [1] is 0.103 µM [rising, full curve, poor fit]. Same read-out and setting: the result for `COCc1cc(C)nc(SCc2ccc(F)cc2)c1C#N` reads 10 µM [rising, partial curve]; that for `C(=C\c1nc(-c2ccccc2)no1)/c1ccccc1`, 1.64 µM [falling, partial curve, poor fit].

Turning to `O=C(NNC(=O)c1cc([N+](=O)[O-])ccc1Cl)c1cccs1`, the AC50 under setting [1] is 16.4 µM [falling, partial curve]. On the same count and under the same terms, next, `COc1ccccc1CNC(=O)c1ccc(-c2ccccc2Cl)o1`: 5.17 µM [falling, partial curve, poor fit]; `CC(NC(=O)CSc1cccc(C(F)(F)F)c1)c1ccccc1` (centres undefined): 0.651 µM [rising, full curve]. Same read-out and setting: the result for `O=C(c1ccc(Br)cc1)C(CN1CCOCC1)c1ccccc1` (centres undefined) reads 12.6 µM [falling, partial curve, poor fit]. As for `CCOc1ccccc1NC(=O)/C=C/C(N)=O`, the AC50 is, setting by setting: under setting [1], 9.2 µM [falling, partial curve]; under setting [2], 14.6 µM [rising, partial curve, poor fit]. For `Cc1ccccc1CC1S/C(=N/N=C/c2ccco2)NC1=O` (centres undefined), the half-maximal activity concentration (AC50) under setting [1] was 8.91 µM [rising, partial curve, poor fit]. Same read-out and setting: next, `CSc1ncccc1C(=O)OCC(=O)N(C)c1c(N)n(Cc2ccccc2)c(=O)[nH]c1=O`: 29.1 µM [rising, single point].

As to `COc1ccccc1C(=O)Nc1ccc2c(c1)n(C)c(=O)n2C`, the AC50 was 1.58 µM [rising, partial curve] under setting [1] and 12.6 µM [falling, partial curve, poor fit] under setting [2]. Take `CC(C)(C)C(=O)/C=C(N)/C=C/c1ccccc1`: the AC50 under setting [1] is 15.8 µM [rising, partial curve, poor fit]. On the same count and under the same terms, next, `Cc1cccc(NC(=O)c2cccc3c2C(=O)c2ccccc2-3)c1`: 0.1 µM [rising, full curve, poor fit]. As to `C[C@@H](NC(=O)OC(C)(C)C)c1nnc(S(=O)(=O)Cc2ccccc2)o1`, the AC50 runs as follows: under setting [1], 8.91 µM [falling, partial curve, poor fit]; under setting [2], 10 µM [rising, partial curve, poor fit]. For `O=C(CCc1ccccc1)Nc1c(F)c(F)c(F)c(F)c1F`, the AC50 under setting [1] is 20 µM [rising, single point]. Still for that read-out and setting: next, `Cc1ccc(SCCNC(=O)/C=C/c2ccccc2Cl)cc1`: 35.5 µM [falling, single point]. On the same count and under the same terms, next, `Cc1cccc2cc(C#N)c(NCCCn3ccnc3)nc12`: 14.1 µM [rising, partial curve, poor fit]. Turning to `CN(CCCNC(=O)CCCOc1cc(=O)n(C)c2ccccc12)Cc1ccccc1`, under setting [2], the AC50 is 14.1 µM [falling, partial curve, poor fit]. For `Cc1cccc(C(=O)N2CCC(=O)N(C(COCc3cccc(Cl)c3)Cc3ccccc3)CC2)c1` (centres undefined), under setting [1], the AC50 is 18.4 µM [falling, partial curve, poor fit]. On to `Cc1ccc(NC(=O)C2CCCCC2C(=O)O)cc1Cl` (centres undefined), for which, under setting [1], the AC50 is 15.8 µM [rising, partial curve, poor fit]. As to `C=CCc1c(C)nc(-c2ccccc2)nc1N/N=C/c1ccccc1`, the AC50 under setting [1] is 18.4 µM [falling, partial curve]. On the same count and under the same terms, next, `Cc1ccc(NC(=O)c2ncn[nH]2)cc1`: 7.94 µM [falling, partial curve, poor fit]; `O=C(COc1cccc2c1CCNC2=O)Nc1ccc(F)cc1`: 2.31 µM [falling, partial curve, poor fit]. As to `COCCCNC(=O)c1c(N)n(-c2ccccc2)c2nc3ccccc3nc12`, the AC50 under setting [1] is 8.91 µM [falling, partial curve, poor fit].

In the case of `CCc1ccc2[nH]c(=O)c(CN(CCN3CCCC3)C(=O)NC3CCCCC3)cc2c1`, the AC50 under setting [1] was 35.5 µM [falling, single point]. The same measure, in the same setting: next, `CCc1nnc(N/N=C/c2ccccc2Cl)n1N`: 35.5 µM [falling, single point]; `Cc1ccc(-c2nnn(CC(=O)N(CC(=O)NC(C)C)c3cnc4ccccc4c3)n2)o1`: 0.00461 µM [rising, full curve, poor fit].

`CC1CCCC(N2CCN(C(=O)c3ccccc3F)CC2)C1` (centres undefined): under setting [1], the AC50 is 15.8 µM [rising, partial curve, poor fit].

On to `Nc1ccc(-c2nc3ccc(N)cc3[nH]2)cc1`, for which the AC50 under setting [1] was 17.8 µM [falling, single point]. Regarding `COC(=O)c1ccc(NC(=O)c2ccc(N(C)S(C)(=O)=O)cc2)cc1`, under setting [1], the AC50 was 6.51 µM [falling, single point]. On the same count and under the same terms, the result for `CC(=O)OC12CC3CC(C1)C(=NO)C(C3)C2` reads 4.61 µM [rising, full curve, poor fit]; that for `c1ccc(OCc2nc3ccccc3s2)cc1`, 14.6 µM [falling, single point]. As to `COc1cc(C(=O)N/N=C/c2ccsc2C)cc(OC)c1OC`, the AC50 was 6.31 µM [rising, full curve] under setting [1] and 8.91 µM [falling, partial curve] under setting [2]. Turning to `Cn1nc(-c2ccccc2)cc1NS(=O)(=O)c1ccccc1`, the AC50 under setting [1] was 10 µM [rising, partial curve, poor fit]. As for `C/C(=N/N=C/c1ccccc1O)c1ccccc1O`, the AC50 under setting [1] is 0.501 µM [rising, partial curve, poor fit].

For the molecule `Cc1nc(-c2ccc(NC(=O)C3CCCCC3)cc2)cs1`, the AC50 under setting [1] is 18.4 µM [falling, partial curve]. On the same count and under the same terms, the result for `CC(=O)Nc1ccc(NC(=O)c2cccc(Oc3ccccc3)c2)cc1` reads 2.24 µM [falling, full curve]; that for `O=C(Nc1ccccc1F)c1ccc(CSc2ncccn2)cc1`, 35.5 µM [falling, single point]; that for `CCOC(=O)N1CCN(C(=O)c2ccc([N+](=O)[O-])cc2Cl)CC1`, 22.4 µM [rising, single point]. With `N=C1/C(=C\c2coc3ccccc3c2=O)C(=O)N=C2SC=CN12`, under setting [1], the half-maximal activity concentration (AC50) was 6.31 µM [falling, full curve]. Same read-out and setting: next, `Cc1cc2[nH]c(=O)c(=O)[nH]c2cc1S(=O)(=O)Nc1cccc(F)c1`: 11.2 µM [rising, partial curve, poor fit]; `CCCN(CCC)C(=S)NC(=O)c1ccc(-c2ccccc2)cc1`: 16.4 µM [falling, single point]. Same read-out and setting: next, `COC(=O)C1=C(C)NC(C)=C(C(=O)OC)C1c1ccco1`: 0.562 µM [rising, full curve, poor fit]; `CCCCC(=O)N/N=C(\C)CC(=O)Nc1cc(Cl)ccc1OC`: 35.5 µM [falling, single point].

With `Oc1ccc(C2=NNC(=NCc3ccc4c(c3)OCO4)SC2)c(O)c1`, the AC50 under setting [1] was 4.11 µM [falling, full curve]. Still for that read-out and setting: next, `CC(C)CC(=O)Nc1ccc(Oc2ccc(NC(=O)CC(C)C)cc2)cc1`: 5.17 µM [rising, partial curve]; `O=C(Nc1ccccn1)c1cc2ccccc2cc1O`: 2.82 µM [falling, full curve]; `O=C1c2ccccc2C(=O)C1C1=Nc2ccccc2NC(c2ccccc2)C1` (centres undefined): 0.501 µM [rising, full curve, poor fit]. The same measure, in the same setting: the result for `COc1cc(S(=O)(=O)n2nnc3ccccc32)c(OC)cc1Cl` reads 29.1 µM [rising, single point]; that for `C/C(N)=C(/C#N)C(=O)COC(=O)c1ccc(OCC2CCCO2)cc1` (centres undefined), 3.98 µM [rising, single point]. Same read-out and setting: next, `CCOC(=O)CSc1nnc(-c2ccccc2OC)o1`: 18.4 µM [rising, single point]. Turning to `Cc1nn(Cc2ccccc2)c2c1C(c1ccc(Cl)cc1)C(C#N)=C(N)O2` (centres undefined), the AC50 under setting [2] is 29.1 µM [falling, single point]. For the molecule `N#CC1=C(N)C2=CCCC[C@H]2[C@H](c2ccc(Br)cc2)C1(C#N)C#N`, the concentration at half-maximal activity (AC50) under setting [1] is 29.1 µM [falling, single point]. The same measure, in the same setting: the result for `CCNC(=S)NCc1ccc2[nH]c(C)cc2c1` reads 23.1 µM [rising, partial curve, poor fit]. The same measure, in the same setting: the result for `O=C(COC(=O)CCCOc1ccc(Cl)cc1Cl)NCc1ccccc1` reads 20.6 µM [rising, partial curve, poor fit]; that for `CC(=O)NC1(c2ccccc2)CCN(Cc2nnnn2C(C)(C)C)CC1`, 0.0259 µM [rising, partial curve, poor fit]; that for `Nc1c(Cl)cc(Cl)cc1C(=O)OCC(=O)N1CCOCC1`, 6.31 µM [falling, partial curve]. The same measure, in the same setting: the result for `O=C(CNc1ccc(F)cc1)c1ccccc1` reads 15.8 µM [falling, partial curve, poor fit]; that for `CC(C)c1ccc2nc(N)sc2c1`, 4.47 µM [rising, full curve, poor fit]. In the case of `Fc1cccc(-c2nnn3c2nc(Cl)c2ccccc23)c1`, under setting [1], the AC50 is 0.355 µM [falling, full curve].

`COC(=O)c1c(NC(=O)CN2CCN(c3ccccc3OC)CC2)c2c(C)cccc2n1C`: the AC50 under setting [1] was 11.2 µM [rising, partial curve, poor fit]. The same measure, in the same setting: the result for `Cc1nc(NC(=O)c2ccc3c(c2)OCO3)ccc1Br` reads 35.5 µM [falling, partial curve, poor fit]; that for `CCn1c(=N)n(CCOc2ccc(Br)cc2)c2ccccc21`, 7.94 µM [falling, partial curve, poor fit].

The record behind these values is PubChem BioAssay AID493014 (National Center for Advancing Translational Sciences (NCATS), 2011).
